Test results reported in paper doi:10.1101/2023.02.25.530019.
These are yes or no findings as the source states them, for the method shown. Binding seen in cells or lysates may run through a third protein. Some results given as binding are weak or reduced against the parent protein; the word gives no strength. One block for each binder: values may come before it.

The chains behind the UniProt entries cited, without tags or fusion partners. Where a name states a change or a piece, a line headed by the entry shows the natural chain unless it says otherwise.
UniProt O75533: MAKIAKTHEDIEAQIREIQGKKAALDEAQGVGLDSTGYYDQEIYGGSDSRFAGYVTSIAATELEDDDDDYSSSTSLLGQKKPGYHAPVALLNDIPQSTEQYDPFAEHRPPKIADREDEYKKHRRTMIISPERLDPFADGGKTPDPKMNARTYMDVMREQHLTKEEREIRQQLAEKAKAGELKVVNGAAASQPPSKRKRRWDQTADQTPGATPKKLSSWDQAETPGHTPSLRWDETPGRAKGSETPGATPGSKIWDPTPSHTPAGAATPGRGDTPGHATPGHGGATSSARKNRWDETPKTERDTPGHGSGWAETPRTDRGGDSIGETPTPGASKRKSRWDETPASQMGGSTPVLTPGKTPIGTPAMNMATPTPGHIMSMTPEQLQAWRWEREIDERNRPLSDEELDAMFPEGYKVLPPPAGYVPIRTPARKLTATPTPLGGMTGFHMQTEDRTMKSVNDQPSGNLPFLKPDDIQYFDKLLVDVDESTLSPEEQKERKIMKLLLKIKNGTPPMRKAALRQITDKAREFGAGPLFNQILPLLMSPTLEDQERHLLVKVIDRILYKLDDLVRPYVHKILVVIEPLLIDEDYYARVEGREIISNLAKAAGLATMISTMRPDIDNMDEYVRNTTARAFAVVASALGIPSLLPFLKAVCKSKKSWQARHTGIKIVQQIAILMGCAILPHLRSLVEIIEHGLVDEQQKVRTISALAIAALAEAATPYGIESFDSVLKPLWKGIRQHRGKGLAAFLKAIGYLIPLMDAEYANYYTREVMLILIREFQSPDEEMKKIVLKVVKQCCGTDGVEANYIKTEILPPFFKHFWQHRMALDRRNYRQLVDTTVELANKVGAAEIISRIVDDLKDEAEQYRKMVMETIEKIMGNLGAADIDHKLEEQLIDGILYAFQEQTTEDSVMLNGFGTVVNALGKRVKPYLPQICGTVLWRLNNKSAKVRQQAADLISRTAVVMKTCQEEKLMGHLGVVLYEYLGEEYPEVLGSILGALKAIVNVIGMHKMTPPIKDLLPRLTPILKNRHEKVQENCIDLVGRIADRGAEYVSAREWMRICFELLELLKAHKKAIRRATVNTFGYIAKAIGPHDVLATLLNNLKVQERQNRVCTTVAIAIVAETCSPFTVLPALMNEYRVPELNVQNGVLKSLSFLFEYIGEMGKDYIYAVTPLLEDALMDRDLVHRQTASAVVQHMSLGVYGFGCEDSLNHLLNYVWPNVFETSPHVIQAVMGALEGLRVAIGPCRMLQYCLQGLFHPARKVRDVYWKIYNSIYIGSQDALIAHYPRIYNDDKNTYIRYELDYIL

Molecular target: FLAG-SF3B1 K700E (UniProt O75533)
Assay: co-IP

- binding: binds
B1: HTATSF1 (protein, UniProt O43719 1-755)
chain: MSGTNLDGNDEFDEQLRMQELYGDGKDGDTQTDAGGEPDSLGQQPTDTPYEWDLDKKAWFPKITEDFIATYQANYGFSNDGASSSTANVEDVHARTAEEPPQEKAPEPTDARKKGEKRKAESGWFHVEEDRNTNVYVSGLPPDITVDEFIQLMSKFGIIMRDPQTEEFKVKLYKDNQGNLKGDGLCCYLKRESVELALKLLDEDEIRGYKLHVEVAKFQLKGEYDASKKKKKCKDYKKKLSMQQKQLDWRPERRAGPSRMRHERVVIIKNMFHPMDFEDDPLVLNEIREDLRVECSKFGQIRKLLLFDRHPDGVASVSFRDPEEADYCIQTLDGRWFGGRQITAQAWDGTTDYQVEETSREREERLRGWEAFLNAPEANRGLRRSDSVSASERAGPSRARHFSEHPSTSKMNAQETATGMAFEEPIDEKKFEKTEDGGEFEEGASENNAKESSPEKEAEEGCPEKESEEGCPKRGFEGSCSQKESEEGNPVRGSEEDSPKKESKKKTLKNDCEENGLAKESEDDLNKESEEEVGPTKESEEDDSEKESDEDCSEKQSEDGSEREFEENGLEKDLDEEGSEKELHENVLDKELEENDSENSEFEDDGSEKVLDEEGSEREFDEDSDEKEEEEDTYEKVFDDESDEKEDEEYADEKGLEAADKKAEEGDADEKLFEESDDKEDEDADGKEVEDADEKLFEDDDSNEKLFDEEEDSSEKLFDDSDERGTLGGFGSVEEGPLSTGSSFILSSDDDDDDI

- binding: binds
B2: U2AF1 (protein, UniProt Q01081 1-240)
chain: MAEYLASIFGTEKDKVNCSFYFKIGACRHGDRCSRLHNKPTFSQTIALLNIYRNPQNSSQSADGLRCAVSDVEMQEHYDEFFEEVFTEMEEKYGEVEEMNVCDNLGDHLVGNVYVKFRREEDAEKAVIDLNNRWFNGQPIHAELSPVTDFREACCRQYEMGECTRGGFCNFMHLKPISRELRRELYGRRRKKHRSRSRSRERRSRSRDRGRGGGGGGGGGGGGRERDRRRSRDRERSGRF
